{"source": "PubChem BioAssay AID1259306 – Sanger Institute | 2017", "purpose": "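Kinase-wide siRNA screen for partners of targeted drugs in colorectal cancer cells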 (primary screen)", "system": "human SNU-C5 colorectal cancer cells", "knock-down reagent": "siRNA pool against human genes", "treatment": "DMSO vehicle alone, or one anchor drug: BYL719 at 1 µM, cetuximab at 5 µg/ml or trametinib at 10 nM, given 24 h into the assay", "read-out": "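Viability versus non-targeting pool averaged across replicates, given as fraction and robust z-score, and synergy scores for BYL719, cetuximab or trametinib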", "direction": "robust z-score, knock-down alone: higher = more viable cells", "rule for the call": "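Called essential when the robust z-score for knock-down alone is below -3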", "calls": "active = essential (knock-down alone); inactive = no change alone", "note": "This is an unselected part of 794 reagents tested. 11 of all reagents (1.4%) count as active. 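Calls reflect knock-down alone; synergy scores play no part, so knock-downs synergising with a drug can be called no change.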 Not all columns of the deposit are shown. Not stated in the record: the amount of reagent, the time to read-out."}
{"target gene": "PLK3 (GeneID 1263)", "robust z-score, knock-down alone": -0.502, "call": "inactive"}
{"target gene": "STK40 (GeneID 83931)", "robust z-score, knock-down alone": -0.119, "call": "inactive"}
{"target gene": "MAP3K21 (GeneID 84451)", "robust z-score, knock-down alone": 0.041, "call": "inactive"}
{"target gene": "CAD (GeneID 790)", "robust z-score, knock-down alone": 0.147, "call": "inactive"}

Ordered by “robust z-score, knock-down alone” (highest first): some entries from above.
{"target gene": "STK40 (GeneID 83931)", "robust z-score, knock-down alone": -0.119, "call": "inactive"}
{"target gene": "PLK3 (GeneID 1263)", "robust z-score, knock-down alone": -0.502, "call": "inactive"}

More records follow.
{"target gene": "CDKL1 (GeneID 8814)", "robust z-score, knock-down alone": 0.0148, "call": "inactive"}
{"target gene": "DGKQ (GeneID 1609)", "robust z-score, knock-down alone": -1.38, "call": "inactive"}
{"target gene": "SRP72 (GeneID 6731)", "robust z-score, knock-down alone": -0.519, "call": "inactive"}
{"target gene": "KMT2B (GeneID 9757)", "robust z-score, knock-down alone": 0.634, "call": "inactive"}
{"target gene": "FLT4 (GeneID 2324)", "robust z-score, knock-down alone": -2.28, "call": "inactive"}
{"target gene": "TSKS (GeneID 60385)", "robust z-score, knock-down alone": 0.989, "call": "inactive"}
{"target gene": "PKN3 (GeneID 29941)", "robust z-score, knock-down alone": 0.648, "call": "inactive"}
{"target gene": "DCK (GeneID 1633)", "robust z-score, knock-down alone": -0.109, "call": "inactive"}
